Data as given in PubChem BioAssay AID1259254 (NCATS, 2017).
Shown is an unselected part of about 59,000 reagents. About 1,550 of all reagents (2.6%) count as active. 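G2 share is only a proxy for re-replication; each gene was hit by three separate siRNAs, and active genes were retested.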 Raw values are not corrected between plates. Entries without a mark were called inactive. The numbers tell different reagents against one gene apart. Not stated in the record: the amount of reagent.

Assay: 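Gene knock-downs that lead to re-replication, shown by excess G2 DNA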 (primary screen)
Cells: human HCT116 colorectal cancer cells
Reagent: single siRNA against human genes
Time to read-out: 3 days
Detection: 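Nuclei stained with Hoechst and imaged; cell-cycle phase assigned by DNA content; G2 share scaled per plate, non-targeting siRNA 0%, GMNN siRNA 100%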
Direction: G2 robust z-score and G2 cells, % of GMNN control: higher = more G2 cells, more excess DNA replication; raw share of cells in G2: higher = larger share of cells with G2 DNA content
Active means: 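Active siRNAs have a G2 robust z of 5 or more median absolute deviations over the median, which in these data means about 38% or higher of GMNN control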

| target gene | reagent | G2 robust z-score | G2 cells, % of GMNN control | raw share of cells in G2 (%) |
| --- | --- | --- | --- | --- |
| TEX11 | 1 | -0.48 | -0.409 | 4.19 |
| TEX11 | 2 | 0.0233 | 3.13 | 5.96 |
| TEX11 | 3 | -0.858 | -3.07 | 2.06 |
| AMMECR1L | 1 | -0.616 | -1.37 | 3.65 |
| AMMECR1L | 2 | 0.522 | 6.64 | 5.43 |
| AMMECR1L | 3 | -0.0445 | 2.65 | 3.21 |
| CAPN3 | 1 | -1.26 | -5.87 | 3.51 |
| CAPN3 | 2 | -1.88 | -10.2 | 1.29 |
| CAPN3 | 3 | -0.841 | -2.95 | 2.81 |
| DOHH | 1 | -0.957 | -3.77 | 2.85 |
| DOHH | 2 | 0.178 | 4.22 | 4.71 |
| DOHH | 3 | -0.726 | -2.14 | 1.76 |
| ZNF142 | 1 | -0.839 | -2.93 | 2.55 |
| ZNF142 | 2 | 0.0202 | 3.11 | 7.37 |
| ZNF142 | 3 | -0.58 | -1.11 | 2.87 |
| TAF5L | 1 | 0.623 | 7.35 | 5.39 |
| TAF5L | 2 | -1 | -4.09 | 4.06 |
| TAF5L | 3 | -0.127 | 2.08 | 4.28 |
| GIMAP6 | 1 | 0.445 | 6.1 | 5.98 |
| GIMAP6 | 2 | -0.591 | -1.19 | 2.96 |
| GIMAP6 | 3 | 2.7 | 22 | 10.6 |
| RAB31 | 1 | -0.845 | -2.98 | 4.4 |
| RAB31 | 2 | 5.77 (active) | 43.6 | 23.7 |
| RAB31 | 3 | -0.753 | -2.33 | 3.09 |
| METTL25 | 1 | 0.453 | 6.16 | 4.27 |
| METTL25 | 2 | 0.0466 | 3.3 | 5.2 |
| METTL25 | 3 | -0.792 | -2.61 | 2.68 |

No new results follow: an excerpt of the list.
| target gene | reagent | G2 robust z-score | G2 cells, % of GMNN control | raw share of cells in G2 (%) |
| --- | --- | --- | --- | --- |
| RAB31 | 2 | 5.77 (active) | 43.6 | 23.7 |
| RAB31 | 3 | -0.753 | -2.33 | 3.09 |
| METTL25 | 1 | 0.453 | 6.16 | 4.27 |
| METTL25 | 2 | 0.0466 | 3.3 | 5.2 |
| METTL25 | 3 | -0.792 | -2.61 | 2.68 |

The results go on.
| target gene | reagent | G2 robust z-score | G2 cells, % of GMNN control | raw share of cells in G2 (%) |
| --- | --- | --- | --- | --- |
| TGM7 | 1 | 0.0407 | 3.25 | 5.71 |
| TGM7 | 2 | -0.605 | -1.29 | 4.41 |
| TGM7 | 3 | -0.129 | 2.06 | 6.63 |
| CACUL1 | 1 | -0.87 | -3.15 | 2.77 |
| CACUL1 | 2 | 1.32 | 12.2 | 6.69 |
| CACUL1 | 3 | -0.672 | -1.76 | 2.45 |
| MUC19 | 1 | 5.64 (active) | 42.7 | 19.2 |
| MUC19 | 2 | 1.1 | 10.7 | 7.18 |
| MUC19 | 3 | -0.11 | 2.19 | 3.93 |
| MUC19 | 4 | -0.425 | -0.0244 | 3.66 |
| MUC19 | 5 | 0.127 | 3.86 | 5.09 |
| MUC19 | 6 | 1.43 | 13 | 8.38 |
| ZYG11A | 1 | -0.302 | 0.843 | 3.95 |
| ZYG11A | 2 | 0.0689 | 3.45 | 4.73 |
| ZYG11A | 3 | 2.2 | 18.5 | 9.39 |
| PCP2 | 1 | 0.382 | 5.65 | 4.9 |
| PCP2 | 2 | -0.896 | -3.34 | 1.37 |
| PCP2 | 3 | -0.34 | 0.572 | 4.39 |
| KMT2C | 1 | -0.313 | 0.765 | 4.5 |
| KMT2C | 2 | 2.5 | 20.6 | 14.2 |
| KMT2C | 3 | 0.127 | 3.86 | 5.71 |
| TFDP2 | 1 | -0.66 | -1.68 | 4.4 |
| TFDP2 | 2 | -0.161 | 1.83 | 5.38 |
| TFDP2 | 3 | -0.329 | 0.656 | 4.36 |
| ZNF200 | 1 | -0.561 | -0.978 | 3.2 |
| ZNF200 | 2 | 1.88 | 16.2 | 13.2 |
| ZNF200 | 3 | 2.25 | 18.8 | 11.2 |
| ITPR2 | 1 | -0.83 | -2.87 | 4.24 |
| ITPR2 | 2 | 1.24 | 11.7 | 8.75 |
| ITPR2 | 3 | 1.41 | 12.9 | 9.41 |
| LSM2 | 1 | 0.722 | 8.04 | 7.19 |
| LSM2 | 2 | 3.04 | 24.4 | 15.7 |
| LSM2 | 3 | 0.742 | 8.19 | 7.2 |
| DOK1 | 1 | 2.79 | 22.6 | 13.1 |
| DOK1 | 2 | -1.06 | -4.47 | 3.9 |
| DOK1 | 3 | 0.601 | 7.2 | 6.56 |
| UVRAG | 1 | 0.86 | 9.01 | 9.13 |
| UVRAG | 2 | -1.12 | -4.93 | 1.94 |
| UVRAG | 3 | 0.125 | 3.85 | 4.71 |
| OTUD4 | 1 | -1.05 | -4.43 | 4.02 |
| OTUD4 | 2 | -0.909 | -3.43 | 3.69 |
| OTUD4 | 3 | 0.0747 | 3.49 | 5.21 |
